# Measured data: PubChem BioAssay AID1159618 (Peter MacCallum Cancer Centre, 2016)
# Assay: 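Retest earlier hits for effects on endothelial scratch closure in two cell types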 (follow-up of hits)
# Cell system: human HMBEC blood microvascular and HDLEC dermal lymphatic endothelial cells
# Knock-down reagent: siRNA pool against human genes, 40 nM
# Measured: 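Automated imaging of scratched monolayers; area filled by migrating cells relative to the mean of mock-transfected wells, averaged over two replicates; nuclei also counted per well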
# Direction: migration vs mock, HMBEC and migration vs mock, HDLEC: higher = more migration into the scratch
# Active means: 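a knock-down counts as active if migrated area in either cell type is under 0.65 of the mock level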
# Meaning of the calls: active = migration impaired; inactive = no change
# The deposit covers 153 reagents; shown is an unselected part. Over the whole deposit, 111 (73%) were called active. 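Migration not corrected for cell number; some knock-downs also lowered nuclei counts, so reduced closure may partly reflect fewer cells.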 Entries without a mark were called inactive. Further read-outs or replicates are left out here. No sequences are given here. The record does not give: the time to read-out.
gene knocked down,cell type with impaired migration,"migration vs mock, HMBEC","migration vs mock, HDLEC"
PDGFRB,impaired in both blood and lymphatic cells (active),0.621,0.534
LYPLA2,impaired only in lymphatic endothelial cells (active),0.763,0.464
SDCCAG8,no change in either cell type,0.763,0.71
PKN2,impaired only in blood endothelial cells (active),0.581,0.73
CHST8,impaired in both blood and lymphatic cells (active),0.646,0.65
LRRC57,impaired only in lymphatic endothelial cells (active),0.917,0.573
STYK1,impaired in both blood and lymphatic cells (active),0.357,0.389
CLCN7,impaired in both blood and lymphatic cells (active),0.195,0.358
KANSL1,impaired only in blood endothelial cells (active),0.619,0.867
PLPPR2,no change in either cell type,0.691,0.652
RNASE7,impaired in both blood and lymphatic cells (active),0.534,0.554
GCGR,impaired in both blood and lymphatic cells (active),0.335,0.368
AXL,no change in either cell type,0.762,0.938
GPR152,impaired in both blood and lymphatic cells (active),0.116,0.107
CARD10,impaired in both blood and lymphatic cells (active),0.62,0.552
KATNIP,no change in either cell type,0.744,0.781
RTKN,no change in either cell type,0.681,0.694
NFATC4,impaired in both blood and lymphatic cells (active),0.637,0.37
ANGPT2,impaired in both blood and lymphatic cells (active),0.534,0.462
SELPLG,impaired in both blood and lymphatic cells (active),0.226,0.556

Limited to “cell type with impaired migration”, for 5 of the entries above:
CHST8: impaired in both blood and lymphatic cells (active)
LRRC57: impaired only in lymphatic endothelial cells (active)
STYK1: impaired in both blood and lymphatic cells (active)
CLCN7: impaired in both blood and lymphatic cells (active)
KANSL1: impaired only in blood endothelial cells (active)

The list goes on.
gene knocked down,cell type with impaired migration,"migration vs mock, HMBEC","migration vs mock, HDLEC"
JUN,impaired in both blood and lymphatic cells (active),0.451,0.632
P2RX2,impaired only in lymphatic endothelial cells (active),0.691,0.371
PI4KA,no change in either cell type,0.938,0.793
SCN1B,impaired only in lymphatic endothelial cells (active),0.691,0.578
MICAL2,impaired in both blood and lymphatic cells (active),0.397,0.596
CNKSR1,impaired only in blood endothelial cells (active),0.335,0.692
ITFG2,impaired only in blood endothelial cells (active),0.581,0.669
PLPP3,impaired in both blood and lymphatic cells (active),0.631,0.531
TUBA1B,impaired only in blood endothelial cells (active),0.408,0.678
GDF3,impaired in both blood and lymphatic cells (active),0.103,0.163
MOB3A,impaired in both blood and lymphatic cells (active),0.284,0.264
CHST5,impaired only in blood endothelial cells (active),0.535,0.676
MTARC1,no change in either cell type,1.03,1.04
